Test system: astrocytes and microglial cells
Assay: Internalisation and subcellular localisation in glial cells
Format: cell-based

| SMILES | cell penetration and localisation by fluorescence (astrocytes and microglial cells, no signal in the nucleus) | distribution between cytoplasmic and membrane fractions (cells treated with 30 μM, cell fractionation, MS detection) |
| --- | --- | --- |
| CCCCCCCC/C=C\CCCCCCCCO[C@H]1O[C@H](COS(=O)(=O)[O-])[C@@H](O)[C@H](O)[C@H]1NC(=O)CCCCCNc1ccc([N+](=O)[O-])c2nonc12.[K+] [IG20-NBD, potash from oleyl 2-[6-(7-nitrobenzofurazan)-aminohexanamide]-6-O-(oxo-sulphonyl)-α-D-glucosaminide] | penetrates the glial cells and accumulates in the cytosol | – |
| CCCCCCCC/C=C\CCCCCCCCO[C@H]1O[C@H](COS(=O)(=O)[O-])[C@@H](O)[C@H](O)C1NC(C)=O.[K+] (stereo partly drawn) [IG-20, potash from oleyl N-acetyl-6-O-(oxo-sulphonyl)-α-D-glucosaminide] | – | cytoplasmic fractions were enriched in the IG-20 compound, which was weakly detected in the membrane fractions |

— patent US20150307539A1, “USE OF SULPHATED G[…] PROMOTERS OF NEURITIC GROWTH, M[…] INHIBITING THE PROLIFERATION OF ASTROGLIA AND MICROGLIA” (CONSEJO SUPERIOR DE INVESTIGACIONES CIENTIFICAS (CSIC), priority 2012, published 2015)
